Test results as given in PubChem BioAssay AID2685 (National Center for Advancing Translational Sciences (NCATS), 2010).
This is one part of the list. Further columns of the screen follow, without active or inactive calls. Most of these compounds were active or inconclusive in the main read-out, so they are no random draw. The note in brackets gives the kind of curve behind each potency; many fits are weak.

Assay: qHTS Assay for Lipid Storage Modulators in Drosophila S3 Cells;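 as to cell number change: cells counted by Cell Tracker Red CMTPX staining in the red channel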
Details: BODIPY lipid droplet fluorescence, 18-24 h; for cell number change: measured here: cell count max response, cells fed with added oleic acid
How it was run: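 Drosophila S3 cells got compounds at several concentrations plus oleic acid (400 uM solution). Laser-scanning cytometry with 488 nm excitation read lipid droplets at 500-530 nm and cells at 575-640 nm. Percent activity was relative to 20 uM Triacsin C.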

[1] = measured here: lipid fluorescence (Fed channel) AC50, cells fed with added oleic acid
[2] = measured here: cell number channel AC50, cells fed with added oleic acid

Structure (SMILES)	cell number change	AC50 [1]	AC50 [2]
CCN(CC)S(=O)(=O)c1ccc(F)c(C(=O)NCCCN2CCOCC2)c1	9.44%	0.00461 µM [falling, full curve, poor fit]	–
OC(COCCOc1ccc(Br)cc1)CN1CCCCC1 (stereo not given)	-66.7%	–	29.1 µM [falling, single point]
COc1ccc([N+](=O)[O-])cc1N(CC(O)CN1C(=O)NC(C)(C)C1=O)S(=O)(=O)c1ccccc1 (stereo not given)	-27%	29.1 µM [falling, single point]	–
Cc1ccc(N2CCN(C(=O)c3nn(C)c4c3CS(=O)(=O)c3ccccc3-4)CC2)c(C)c1	-28.8%	–	–
CCN(CC)CCCN(CC(=O)N(C)Cc1ccccc1)C(=O)c1ccc([N+](=O)[O-])cc1	18.2%	7.31 µM [rising, partial curve, poor fit]	–
O=C(O)c1cccc(S(=O)(=O)NCc2cccs2)c1	–	0.092 µM [falling, full curve, poor fit]	–
COC(=O)c1ccccc1Nc1cc(C)nc2nc(C)nn12	32.1%	8.2 µM [rising, partial curve]	29.1 µM [rising, single point]
O=C(CSc1nc2ccccc2nc1N1CCCCC1)Nc1ccc(F)cc1	6.05%	–	–
COc1ccccc1C(=O)NC(=O)COC(=O)c1cccc(OC(F)F)c1	1.62%	–	–
CCCn1c(SCC(=O)c2ccc3c(c2)OCCO3)n[nH]c1=O	–	29.1 µM [rising, partial curve]	–
O=C(COC(=O)C1CCN(S(=O)(=O)c2cccs2)CC1)NCc1ccccc1	0.519%	–	–
CCN(CC)S(=O)(=O)c1cccc(C(=O)Nc2cccc(C)c2)c1	–	3.66 µM [rising, single point]	2.91 µM [rising, partial curve]
CN1C(=O)CSc2ccc(NC(=O)NCCC3=CCCCC3)cc21	-6.45%	3.66 µM [rising, partial curve]	2.31 µM [rising, partial curve]
COc1ccc(Cn2c(O)c(C=Nc3ccc(OC)cc3)c3ccccc3c2=O)cc1	–	–	0.92 µM [rising, full curve]
Cc1ccc(C(=O)NNC(=O)C2CSC3(C)CCC(=O)N23)cc1 (stereo not given)	-9.29%	6.51 µM [rising, partial curve, poor fit]	–
COCCCNC(=O)CCc1c(C)c2cc3c(C)coc3cc2oc1=O	7.75%	20.6 µM [falling, single point]	6.51 µM [rising, single point]
O=c1c2c([nH]c3ccccc13)CCCC2	-23.7%	29.1 µM [falling, partial curve, poor fit]	–

Some of these compounds in order of molecular weight, smallest number first.
Structure (SMILES)	cell number change	AC50 [1]	AC50 [2]
O=C(O)c1cccc(S(=O)(=O)NCc2cccs2)c1	–	0.092 µM [falling, full curve, poor fit]	–
CN1C(=O)CSc2ccc(NC(=O)NCCC3=CCCCC3)cc21	-6.45%	3.66 µM [rising, partial curve]	2.31 µM [rising, partial curve]
OC(COCCOc1ccc(Br)cc1)CN1CCCCC1 (stereo not given)	-66.7%	–	29.1 µM [falling, single point]
